# According to PMC7862700:
# Sequences of proteins named here, by UniProt entry; tags and fusion partners are left off. A change or cut given only in a name is not applied to a line headed by its entry.
# UniProt P32519: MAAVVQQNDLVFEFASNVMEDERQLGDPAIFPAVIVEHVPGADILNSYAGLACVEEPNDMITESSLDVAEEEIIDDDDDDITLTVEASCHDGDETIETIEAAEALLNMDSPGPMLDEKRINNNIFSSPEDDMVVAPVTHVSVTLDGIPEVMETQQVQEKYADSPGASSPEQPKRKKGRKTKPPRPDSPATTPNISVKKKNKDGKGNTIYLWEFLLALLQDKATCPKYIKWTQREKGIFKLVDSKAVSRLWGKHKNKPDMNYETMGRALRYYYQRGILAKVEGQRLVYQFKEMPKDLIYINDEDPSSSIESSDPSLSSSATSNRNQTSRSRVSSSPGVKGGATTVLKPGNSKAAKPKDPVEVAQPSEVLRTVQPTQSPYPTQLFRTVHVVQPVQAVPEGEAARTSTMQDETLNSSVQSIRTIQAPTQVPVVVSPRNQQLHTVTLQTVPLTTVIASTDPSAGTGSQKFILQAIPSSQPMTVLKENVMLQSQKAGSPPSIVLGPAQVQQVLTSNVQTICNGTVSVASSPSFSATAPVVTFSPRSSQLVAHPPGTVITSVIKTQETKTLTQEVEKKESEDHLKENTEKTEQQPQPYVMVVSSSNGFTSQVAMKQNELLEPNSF
# UniProt P50549: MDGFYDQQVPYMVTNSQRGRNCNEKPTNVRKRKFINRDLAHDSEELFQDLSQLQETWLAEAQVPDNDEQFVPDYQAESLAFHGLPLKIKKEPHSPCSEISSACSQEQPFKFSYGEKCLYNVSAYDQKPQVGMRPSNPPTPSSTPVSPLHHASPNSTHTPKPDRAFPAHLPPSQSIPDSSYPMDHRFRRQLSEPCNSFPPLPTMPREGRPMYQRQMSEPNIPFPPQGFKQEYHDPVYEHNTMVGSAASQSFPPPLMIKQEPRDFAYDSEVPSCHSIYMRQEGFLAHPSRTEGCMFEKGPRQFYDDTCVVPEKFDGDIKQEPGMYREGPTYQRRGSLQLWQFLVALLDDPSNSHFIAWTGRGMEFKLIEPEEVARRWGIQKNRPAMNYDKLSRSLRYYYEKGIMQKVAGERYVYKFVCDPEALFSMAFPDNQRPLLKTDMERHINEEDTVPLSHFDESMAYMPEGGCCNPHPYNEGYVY
# Only a part is listed here, and it is no random draw. For part of these data: At the low end of the ranking, values are background and their order means little. The list shows a part of the results. For part of these data: The source does not settle which construct or isoform was used.
# Columns and labels:
# Experiment in all cases: DAPPL (digital affinity profiling via proximity ligation, sequencing)
# Details in all cases: 10 mM Tris-HCl pH 7.5, 50 mM NaCl, 1 mM DTT, 4% glycerol, room temperature, 30 min; GST-TFs on glutathione beads, 16-mer random dsDNA library, 0.1% …; high values mean tight binding; double strand, one strand shown; scale: fold enrichment (6-mer frequency, TF over GST control)
# ERG = target: T1, ERG (UniProt P11308)
# T1 sequence: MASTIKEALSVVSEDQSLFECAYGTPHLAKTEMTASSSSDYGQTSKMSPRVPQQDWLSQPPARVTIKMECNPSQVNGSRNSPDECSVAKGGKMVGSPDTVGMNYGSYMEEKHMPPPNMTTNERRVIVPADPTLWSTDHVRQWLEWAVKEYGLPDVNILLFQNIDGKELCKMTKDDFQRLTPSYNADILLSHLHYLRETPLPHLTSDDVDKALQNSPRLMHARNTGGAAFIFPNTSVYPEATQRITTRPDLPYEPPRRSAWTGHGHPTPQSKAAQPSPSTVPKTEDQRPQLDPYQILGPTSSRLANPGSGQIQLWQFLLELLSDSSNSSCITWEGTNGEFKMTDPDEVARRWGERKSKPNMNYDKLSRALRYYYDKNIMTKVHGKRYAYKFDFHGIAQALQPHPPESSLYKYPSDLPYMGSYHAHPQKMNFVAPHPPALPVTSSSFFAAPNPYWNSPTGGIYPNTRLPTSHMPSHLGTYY
# ELF1 = ELF1 (UniProt P32519)
# ELK4 = target: T2, ELK4 (UniProt P28324-2)
# T2 sequence: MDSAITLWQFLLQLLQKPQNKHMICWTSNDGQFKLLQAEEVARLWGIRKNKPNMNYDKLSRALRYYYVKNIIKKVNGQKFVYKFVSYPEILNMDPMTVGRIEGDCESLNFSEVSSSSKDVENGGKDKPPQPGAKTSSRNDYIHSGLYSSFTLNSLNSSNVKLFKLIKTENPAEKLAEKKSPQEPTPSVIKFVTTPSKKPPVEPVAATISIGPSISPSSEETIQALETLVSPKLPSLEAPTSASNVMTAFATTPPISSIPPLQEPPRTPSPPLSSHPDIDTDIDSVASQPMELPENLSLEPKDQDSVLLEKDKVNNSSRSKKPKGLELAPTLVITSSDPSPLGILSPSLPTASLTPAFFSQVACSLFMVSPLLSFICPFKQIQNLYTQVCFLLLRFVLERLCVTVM
# ETV4 = target: T3, ETV4 (UniProt P43268)
# T3 sequence: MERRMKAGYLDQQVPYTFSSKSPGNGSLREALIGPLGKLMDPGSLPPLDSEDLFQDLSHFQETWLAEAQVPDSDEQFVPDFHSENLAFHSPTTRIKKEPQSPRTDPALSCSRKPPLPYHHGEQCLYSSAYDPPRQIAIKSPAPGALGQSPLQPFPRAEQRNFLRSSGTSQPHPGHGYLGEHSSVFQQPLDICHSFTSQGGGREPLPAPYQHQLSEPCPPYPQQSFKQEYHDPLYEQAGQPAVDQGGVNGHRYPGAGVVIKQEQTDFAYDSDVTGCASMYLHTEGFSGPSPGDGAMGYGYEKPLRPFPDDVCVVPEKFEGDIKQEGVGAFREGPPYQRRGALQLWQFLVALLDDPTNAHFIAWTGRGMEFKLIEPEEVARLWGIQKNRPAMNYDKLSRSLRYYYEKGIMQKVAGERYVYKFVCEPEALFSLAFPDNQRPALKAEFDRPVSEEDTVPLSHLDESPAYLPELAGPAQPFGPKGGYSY
# ETV1 = ETV1 (UniProt P50549)
# ERF = target: T4, ERF (UniProt P50548)
# T4 sequence: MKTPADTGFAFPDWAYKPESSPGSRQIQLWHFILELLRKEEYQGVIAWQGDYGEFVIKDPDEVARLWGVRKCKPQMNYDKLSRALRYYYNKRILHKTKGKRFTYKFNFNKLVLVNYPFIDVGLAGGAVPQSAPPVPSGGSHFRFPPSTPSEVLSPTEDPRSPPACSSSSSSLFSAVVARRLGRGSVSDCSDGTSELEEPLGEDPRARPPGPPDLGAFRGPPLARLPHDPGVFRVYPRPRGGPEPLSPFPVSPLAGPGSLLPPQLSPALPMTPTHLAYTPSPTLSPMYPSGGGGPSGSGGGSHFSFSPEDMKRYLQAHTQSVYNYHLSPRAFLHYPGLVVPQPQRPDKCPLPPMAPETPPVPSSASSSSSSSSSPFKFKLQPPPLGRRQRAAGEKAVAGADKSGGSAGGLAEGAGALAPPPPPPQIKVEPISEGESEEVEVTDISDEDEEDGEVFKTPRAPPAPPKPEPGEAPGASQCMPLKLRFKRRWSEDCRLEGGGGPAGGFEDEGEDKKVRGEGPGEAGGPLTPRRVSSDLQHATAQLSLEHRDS
Sequence,binding signal (ERG),binding signal (ELF1),binding signal (ELK4),binding signal (ETV4),binding signal (ETV1),binding signal (ERF)
GGGGTC,0.633,0.661,0.587,0.625,0.701,0.663
ACGCAG,0.777,0.795,0.81,0.83,0.765,0.819
GAATCG,0.635,0.617,0.661,0.582,0.654,0.603
GGACCC,0.814,0.864,0.838,0.917,0.849,0.821
CCGGGA,0.499,0.472,0.46,0.491,0.52,0.48
ACCAGT,0.511,0.493,0.452,0.478,0.445,0.457
CGGTGT,0.738,0.701,0.633,0.75,0.741,0.739
TCGGCC,0.741,0.715,0.774,0.794,0.693,0.768
GCATAA,0.857,0.813,0.844,0.859,0.848,0.943
TCGGTG,0.496,0.533,0.62,0.553,0.567,0.591
CAATCG,0.885,0.96,0.937,0.931,0.891,0.849
AGGATC,0.876,0.867,0.819,0.858,0.929,0.928
GAGGTG,0.487,0.499,0.491,0.467,0.507,0.465
CCCAGT,0.67,0.622,0.658,0.656,0.614,0.672
CAGTAA,0.698,0.737,0.741,0.748,0.708,0.675
AGAGTC,0.447,0.438,0.538,0.426,0.474,0.471
CGGCGC,0.652,0.656,0.811,0.705,0.648,0.616
CCGCGA,0.834,0.77,0.78,0.798,0.775,0.748
TCGGGT,0.607,0.558,0.54,0.594,0.567,0.626
GAGGGC,0.592,0.642,0.58,0.647,0.653,0.621

Sequence,binding signal (ERG),binding signal (ELF1),binding signal (ELK4),binding signal (ETV4),binding signal (ETV1),binding signal (ERF)
GGGGAA,0.723,0.678,0.658,0.728,0.781,0.737
TACGTG,0.637,0.661,0.717,0.703,0.697,0.75
TTGTGA,0.784,0.824,0.87,0.794,0.712,0.744
AGCGGG,0.467,0.461,0.538,0.453,0.455,0.464
GCGGAT,0.948,0.794,0.786,0.883,0.843,0.881
GCGCAA,0.841,0.845,0.906,0.801,0.86,0.829
AGGAGT,0.387,0.356,0.422,0.346,0.354,0.383
GAGGCG,0.418,0.384,0.41,0.381,0.444,0.372
AGGTGA,0.52,0.601,0.515,0.578,0.521,0.533
GAGTCC,0.418,0.375,0.405,0.398,0.412,0.431
GGTAGA,0.691,0.671,0.707,0.629,0.619,0.737
GAGATA,0.643,0.65,0.649,0.601,0.647,0.718
GATTGT,0.834,0.808,0.864,0.841,0.819,0.932
GGAGGG,0.315,0.318,0.357,0.31,0.337,0.316
AACCGT,0.52,0.511,0.479,0.517,0.531,0.577
ACGGAG,0.388,0.377,0.382,0.382,0.377,0.412
GGGTTG,0.788,0.828,0.954,0.941,0.828,0.838
GCGTAG,0.76,0.775,0.867,0.712,0.776,0.79
GCGCGA,0.725,0.729,0.846,0.774,0.756,0.724
ACAGTC,0.432,0.445,0.445,0.407,0.481,0.448

Sequence,binding signal (ERG),binding signal (ELF1),binding signal (ELK4),binding signal (ETV4),binding signal (ETV1),binding signal (ERF)
GGGATC,0.638,0.632,0.712,0.617,0.687,0.582
AGTGGA,0.818,0.76,0.883,0.742,0.766,0.714
GTGGGA,0.612,0.551,0.599,0.518,0.57,0.589
AGACCA,0.626,0.62,0.617,0.672,0.623,0.626
GGGCAA,0.893,0.873,0.892,0.903,0.864,0.979
GGGTGC,0.743,0.777,0.855,0.751,0.701,0.858
GGTGAC,0.779,0.831,0.736,0.858,0.805,0.688
GAGTCA,0.296,0.274,0.264,0.249,0.246,0.258
CAGACA,0.841,0.789,0.912,0.804,0.763,0.811
TGCGGG,0.744,0.869,0.725,0.756,0.798,0.784
GGCTGA,0.746,0.777,0.825,0.797,0.839,0.825
GACATA,0.872,0.912,0.789,0.864,0.895,0.835
GACTGG,0.622,0.669,0.73,0.594,0.677,0.682
CGTGCT,0.821,0.794,0.928,0.879,0.888,0.902
GGGTCT,0.847,0.98,0.95,0.885,0.954,0.998
GTGACA,0.788,0.835,0.803,0.809,0.765,0.766
CGGTTG,0.798,0.805,0.963,0.832,0.765,0.741
AACGGG,0.762,0.711,0.742,0.733,0.688,0.686
GGCAAC,0.873,0.912,0.86,0.913,0.874,0.909
AAGGCG,0.705,0.675,0.685,0.656,0.661,0.73

# A second format for some results above:
Sequence | binding signal (ERG) | binding signal (ELF1) | binding signal (ELK4) | binding signal (ETV4) | binding signal (ETV1) | binding signal (ERF)
CAGACA | 0.841 | 0.789 | 0.912 | 0.804 | 0.763 | 0.811
TGCGGG | 0.744 | 0.869 | 0.725 | 0.756 | 0.798 | 0.784
